According to publication PMC4587795:
These are yes or no findings as the source states them, for the method shown. For some assays here: Binding seen in cells or lysates may run through a third protein. Some binding calls cover weakened binding; strength is not graded here.

Chains of the proteins cited; added tags and fusions are not shown. Lines headed by an entry give the natural chain unless they say otherwise; changes in a name come on top. A line that says so, or that is headed by a name, gives the form on record, which may keep a tag or linker.
UniProt Q13263: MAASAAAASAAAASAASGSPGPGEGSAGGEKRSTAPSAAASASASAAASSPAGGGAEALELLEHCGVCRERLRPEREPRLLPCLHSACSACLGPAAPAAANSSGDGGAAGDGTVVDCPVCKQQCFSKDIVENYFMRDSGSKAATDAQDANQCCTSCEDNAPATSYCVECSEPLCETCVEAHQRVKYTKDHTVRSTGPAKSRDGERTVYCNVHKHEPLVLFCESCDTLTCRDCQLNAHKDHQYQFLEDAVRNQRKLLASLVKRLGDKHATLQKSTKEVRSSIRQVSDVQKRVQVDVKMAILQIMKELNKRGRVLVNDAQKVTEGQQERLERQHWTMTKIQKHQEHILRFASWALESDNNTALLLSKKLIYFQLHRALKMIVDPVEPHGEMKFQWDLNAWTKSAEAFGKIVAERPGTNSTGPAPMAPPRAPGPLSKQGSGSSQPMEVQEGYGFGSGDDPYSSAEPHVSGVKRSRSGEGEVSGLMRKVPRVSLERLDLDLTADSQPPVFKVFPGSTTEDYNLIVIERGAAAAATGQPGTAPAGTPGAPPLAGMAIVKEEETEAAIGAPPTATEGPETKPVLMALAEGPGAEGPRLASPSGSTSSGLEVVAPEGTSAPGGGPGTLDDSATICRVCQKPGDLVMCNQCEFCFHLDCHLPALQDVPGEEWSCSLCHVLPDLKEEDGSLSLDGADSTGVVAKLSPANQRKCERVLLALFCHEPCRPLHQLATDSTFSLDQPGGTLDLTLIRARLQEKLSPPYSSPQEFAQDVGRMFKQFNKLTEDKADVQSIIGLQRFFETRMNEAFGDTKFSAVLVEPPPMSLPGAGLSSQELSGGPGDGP
intact ZFP809 (zinc finger protein 809), FLAG-tagged (G3X9G7-2, form named): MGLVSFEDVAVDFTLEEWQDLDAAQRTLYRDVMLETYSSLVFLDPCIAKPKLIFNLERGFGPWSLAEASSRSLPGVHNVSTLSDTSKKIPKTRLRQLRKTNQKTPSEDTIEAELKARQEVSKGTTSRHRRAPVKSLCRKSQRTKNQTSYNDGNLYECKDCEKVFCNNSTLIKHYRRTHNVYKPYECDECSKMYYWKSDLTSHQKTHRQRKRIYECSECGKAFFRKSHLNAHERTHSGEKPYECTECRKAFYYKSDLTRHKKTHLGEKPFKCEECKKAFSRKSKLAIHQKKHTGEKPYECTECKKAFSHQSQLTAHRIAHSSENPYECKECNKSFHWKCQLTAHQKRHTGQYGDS

Tests used:
[1] = target: KRAB-associated protein 1 (KAP1) (human (endogenous in 293FT)) (UniProt Q13263); test: native gel or EMSA; nuclear extracts of transduced 293FT cells with 32P-labelled MLV-PBS probe; anti-KAP1 monoclonal antibody added for super-shift of the protein-DNA complex; 8% gel
[2] = target: KRAB-associated protein 1 (KAP1) (human (endogenous in 293FT)) (UniProt Q13263); test: co-IP; lysates of 293FT cells transduced with the lentiviral vectors; anti-KAP1 polyclonal or anti-FLAG monoclonal antibody on Dynabeads protein G, 15 min at room temperature; Western blot with anti-DDDDK tag or anti-KAP1 antibodies

intact ZFP809 (zinc finger protein 809), FLAG-tagged (from UniProt G3X9G7-2 1-354)
binding [1]: binds
binding [2]: binds
